# At least one structure is not confirmed: it was looked up by name or label, or the drawing left a doubt.
# Sequences of proteins named here, by UniProt entry; tags and fusion partners are left off. A change or cut given only in a name is not applied to a line headed by its entry.
# UniProt O54922: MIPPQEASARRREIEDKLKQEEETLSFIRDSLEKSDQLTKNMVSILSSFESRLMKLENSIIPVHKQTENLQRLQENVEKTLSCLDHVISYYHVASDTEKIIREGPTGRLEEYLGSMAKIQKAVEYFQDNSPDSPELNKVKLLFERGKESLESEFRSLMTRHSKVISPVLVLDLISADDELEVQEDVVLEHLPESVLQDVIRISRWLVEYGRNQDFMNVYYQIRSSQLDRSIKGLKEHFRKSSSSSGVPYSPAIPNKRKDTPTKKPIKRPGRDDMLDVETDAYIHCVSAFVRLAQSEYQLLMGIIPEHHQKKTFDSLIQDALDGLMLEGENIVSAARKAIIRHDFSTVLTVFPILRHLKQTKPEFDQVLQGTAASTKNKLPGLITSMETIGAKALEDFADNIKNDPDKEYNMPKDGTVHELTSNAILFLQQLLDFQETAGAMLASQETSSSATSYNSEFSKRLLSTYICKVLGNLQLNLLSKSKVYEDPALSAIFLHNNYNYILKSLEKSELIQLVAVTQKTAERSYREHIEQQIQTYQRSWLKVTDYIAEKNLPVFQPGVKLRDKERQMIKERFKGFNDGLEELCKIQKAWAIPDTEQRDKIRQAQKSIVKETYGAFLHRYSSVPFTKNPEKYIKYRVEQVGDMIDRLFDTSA
# Key:
# [1] = target: T1, EXO70A1 (amino acid residues 75-638) (Arabidopsis thaliana, UniProt Q9LZD3); experiment: STD-NMR of ES2 / analog8 with purified EXO70A1; format: binding
# T1 sequence (Q9LZD3 75-638): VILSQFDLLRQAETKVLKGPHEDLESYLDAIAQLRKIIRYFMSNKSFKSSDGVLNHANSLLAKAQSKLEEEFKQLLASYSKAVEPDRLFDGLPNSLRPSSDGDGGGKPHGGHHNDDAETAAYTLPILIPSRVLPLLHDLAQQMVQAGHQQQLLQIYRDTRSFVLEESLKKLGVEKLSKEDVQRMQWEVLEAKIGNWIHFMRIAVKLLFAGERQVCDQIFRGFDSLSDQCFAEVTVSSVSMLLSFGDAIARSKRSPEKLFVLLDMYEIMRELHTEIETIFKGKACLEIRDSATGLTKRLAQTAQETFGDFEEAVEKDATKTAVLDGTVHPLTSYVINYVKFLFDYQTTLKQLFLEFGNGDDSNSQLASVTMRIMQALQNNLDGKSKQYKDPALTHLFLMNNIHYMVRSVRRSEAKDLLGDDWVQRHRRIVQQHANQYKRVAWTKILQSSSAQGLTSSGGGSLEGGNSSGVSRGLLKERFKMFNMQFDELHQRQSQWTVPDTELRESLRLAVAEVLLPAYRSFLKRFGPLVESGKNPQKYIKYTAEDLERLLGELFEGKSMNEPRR
# PIN2 recycling = experiment: BFA washout experiment (PIN2 recycling); details: 40 μM BFA 2 hours, recovery 90 minutes in 40 μM ES2 vs DMSO
# rat EXO70 (rEXO70) = rat EXO70 (rEXO70) (Rattus norvegicus, UniProt O54922); experiment: STD-NMR of ES2 with purified rat EXO70; format: binding
# [2] = target: T2, GFP-tagged rat EXO70 (rEXO70) (Rattus norvegicus, UniProt O54922); experiment: Localization of GFP-tagged rat EXO70 in Hela cells; format: cell-based; details: ES2 treatment
# T2 construct: expressed in transfected cells; host or cells: HeLa cells
# Hela cells = experiment: Transferrin recycling assay; format: cell-based, human; details: ES2 1 hour, 90 min chase
# Arabidopsis seedlings = experiment: Seedling growth and gravitropic response on ES2 media; details: grown on media containing ES2
# Arabidopsis pollen = experiment: In vitro pollen germination and pollen tube growth
# PIN2 localization = PIN2 localization in root cells of PIN2::PIN2:GFP seedlings; details: 40 μM ES2, 2 hours, 338 agglomerations
# [3] = tested on: BRI1, PIN1, SYP61, ROP6, ER, Golgi, PVC and plasma membrane markers; experiment: Localization of other marker proteins in Arabidopsis; format: cell-based
# [4] = STD-NMR, EXO70A1, non-linear fit
compound,measurement,setting,value
COc1cc(/C=N/NC(=O)c2cccc(F)c2)cc(I)c1O [ES2],R square,[1]; [4],90.2%
same,h (Hill coefficient),[1]; [4],1.21 ± 0.297
same,Bmax (mean ± SE),"[1]; STD-NMR, EXO70A1, non-linear fit, Table 2",12.9 ± 2.74 µM
same,Bmax,"[1]; STD-NMR, EXO70A1, running text, no unit",12.9±2.74
same,interaction with EXO70A1 in STD-NMR (STD amplification factor),[1]; build-up curve / titration,direct interaction
same,disappearance of BFA bodies,PIN2 recycling,significant delay
same,interaction between ES2 and rEXO70 in STD-NMR,rat EXO70 (rEXO70),confirmed by the presence of saturation energy transfer
same,localization of GFP-rEXO70,[2],induced the accumulation of EXO70 vesicles near the plasma membrane
same,recycling of transferrin (Tfn),Hela cells,accumulated markedly at the protrusion sites
same,"seedling root, root hair and gravity phenotype",Arabidopsis seedlings,"shorter roots, fewer and shorter root hairs and are less sensitive to gravity stimulation"
same,pollen germination,Arabidopsis pollen; 16 μM ES2,inhibits germination
same,pollen tube growth,Arabidopsis pollen; 2-16 μM ES2,inhibits polarized growth of pollen tubes in a dose dependent manner
same,co-localization of PIN2 agglomerations with ARA7/RabF2b,PIN2 localization,partial or complete co-localization
same,"localization of HDEL:GFP, GOT1p:YFP, SYP21:YFP, PGP4:GFP, PIP2a:GFP",[3],did not affect the localization
same,"trafficking of BRI1, PIN1 and PIN2",[3]; 2 hours,disrupted the trafficking
same,aggregation of Trans-Golgi Network marker SYP61,[3]; compared to ES1,did not induce aggregation
same,ROP6 localization,[3]; compared to ES3,did not affect ROP6 localization

# Source: patent US20180362449A1, “THE EXOCYST AS A NOVEL DRUG TARGET OF ENDOSIDIN2 AND APPLICATION AS A THERAPEUTIC” (The Regents of the University of California, priority 2015, published 2018)
